PubChem BioAssay AID1224829 – NIAID, 2016

- Screen: 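Follow-up of TLR4-NF-kappaB regulators using six separate siRNAs for each gene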 (follow-up of hits)
- Cells: mouse RAW264.7 G9 macrophage reporter cells
- Reagent: single siRNA against mouse genes, 100 nM
- Duration: 2 days of siRNA knock-down, then 40 min of LPS before fixing
- Conditions: LPS (Salmonella minnesota R595) at 10 ng/ml
- Measured: 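High-content images after 40 min LPS exposure; GFP-p65 nucleus to surrounding ring signal ratio, normalised to plate median and non-targeting control wells, expressed as z-score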
- Scale: p65 translocation z-score and gene median z-score, per vendor: higher = more nuclear NF-kappaB p65 after LPS
- Call rule: 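Active means the replicate-mean z-score lies beyond plus or minus 2, in either direction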
- Calls: active = changed p65 translocation (either direction); inactive = no clear change
In all, the deposit lists about 3,800 reagents; this is an unselected part. 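Calls cover raised and lowered translocation; gene median uses one vendor's three siRNAs; qiagen siRNAs acted more weakly than ambion siRNAs.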 Reagents against one gene are numbered here. No sequences are given here.

| gene | siRNA no. | siRNA vendor or control pool | p65 translocation z-score, replicate mean | p65 translocation z-score, replicate 1 | p65 translocation z-score, replicate 2 | gene median z-score, per vendor | Outcome |
| --- | --- | --- | --- | --- | --- | --- | --- |
| Cacna2d1 | 1 | ambion single siRNA | -1.13 | -2.08 | -0.188 | -0.188 | inactive |
| Cacna2d1 | 2 | ambion single siRNA | 1.47 | 0.637 | 2.31 | -0.188 | inactive |
| Cacna2d1 | 3 | ambion single siRNA | -1.1 | -1.1 | – | -0.188 | inactive |
| Cacna2d1 | 4 | qiagen single siRNA | 2.88 | 2.57 | 3.2 | 1.48 | active |
| Cacna2d1 | 5 | qiagen single siRNA | 0.785 | 0.0854 | 1.48 | 1.48 | inactive |
| Cacna2d1 | 6 | qiagen single siRNA | 0.983 | 1.47 | 0.499 | 1.48 | inactive |
| Trim67 | 1 | ambion single siRNA | 2.49 | 2.18 | 2.8 | -0.615 | active |
| Trim67 | 2 | ambion single siRNA | -0.615 | -0.202 | -1.03 | -0.615 | inactive |
| Trim67 | 3 | ambion single siRNA | -5.68 | -5.69 | -5.67 | -0.615 | active |
| Trim67 | 4 | qiagen single siRNA | 0.27 | -0.154 | 0.694 | -0.603 | inactive |
| Trim67 | 5 | qiagen single siRNA | -3.05 | -1.76 | -4.33 | -0.603 | active |
| Trim67 | 6 | qiagen single siRNA | -0.567 | -1.05 | -0.0819 | -0.603 | inactive |
| Eif3f | 1 | ambion single siRNA | -2.37 | -2.33 | -2.41 | -2.37 | active |
| Eif3f | 2 | ambion single siRNA | 1.06 | 1.46 | 0.666 | -2.37 | inactive |
| Eif3f | 3 | ambion single siRNA | -4.87 | -4.84 | -4.89 | -2.37 | active |
| Eif3f | 4 | qiagen single siRNA | -2.03 | -0.457 | -3.6 | -1.08 | active |
| Eif3f | 5 | qiagen single siRNA | -2.15 | -2.59 | -1.71 | -1.08 | active |
| Eif3f | 6 | qiagen single siRNA | 0.161 | 0.68 | -0.359 | -1.08 | inactive |
| Or8g24 | 1 | ambion single siRNA | -0.972 | -0.284 | -1.66 | -2.91 | inactive |
| Or8g24 | 2 | ambion single siRNA | -2.9 | -4.16 | -1.64 | -2.91 | active |
| Or8g24 | 3 | ambion single siRNA | -6.68 | -7.1 | -6.25 | -2.91 | active |
| Or8g24 | 4 | qiagen single siRNA | -0.806 | -0.797 | -0.816 | -0.211 | inactive |
| Or8g24 | 5 | qiagen single siRNA | 1.05 | -0.573 | 2.68 | -0.211 | inactive |
| Or8g24 | 6 | qiagen single siRNA | 0.241 | 0.33 | 0.151 | -0.211 | inactive |
| Alyref | 1 | ambion single siRNA | -2.25 | -1.73 | -2.78 | -2.82 | active |
| Alyref | 2 | ambion single siRNA | -2.05 | -1.24 | -2.86 | -2.82 | active |
| Alyref | 3 | ambion single siRNA | -4.86 | -4.79 | -4.94 | -2.82 | active |
| Alyref | 4 | qiagen single siRNA | 2.13 | 0.882 | 3.37 | -1.07 | active |
| Alyref | 5 | qiagen single siRNA | -2.64 | -2.75 | -2.53 | -1.07 | active |
| Alyref | 6 | qiagen single siRNA | -1.07 | -1.54 | -0.605 | -1.07 | inactive |
| Xpa | 1 | ambion single siRNA | -0.732 | -0.0395 | -1.42 | -0.776 | inactive |
| Xpa | 2 | ambion single siRNA | -1.23 | -1.17 | -1.3 | -0.776 | inactive |
| Xpa | 3 | ambion single siRNA | -0.347 | -0.383 | -0.311 | -0.776 | inactive |
| Xpa | 4 | qiagen single siRNA | 1.28 | 0.0237 | 2.55 | 0.589 | inactive |
| Xpa | 5 | qiagen single siRNA | 0.433 | 1.03 | -0.161 | 0.589 | inactive |
| Xpa | 6 | qiagen single siRNA | 0.589 | 0.589 | – | 0.589 | inactive |
| Tnfrsf22 | 1 | ambion single siRNA | -0.659 | -0.357 | -0.961 | -0.8 | inactive |
| Tnfrsf22 | 2 | ambion single siRNA | -0.142 | 0.356 | -0.639 | -0.8 | inactive |
| Tnfrsf22 | 3 | ambion single siRNA | -3.26 | -3.09 | -3.43 | -0.8 | active |
| Tnfrsf22 | 4 | qiagen single siRNA | 0.322 | -0.966 | 1.61 | 0.613 | inactive |
| Tnfrsf22 | 5 | qiagen single siRNA | 0.792 | -0.964 | 2.55 | 0.613 | inactive |
| Tnfrsf22 | 6 | qiagen single siRNA | 0.613 | -0.134 | 1.36 | 0.613 | inactive |
| Ces2e | 1 | ambion single siRNA | 1.94 | 2.6 | 1.28 | -0.431 | inactive |
| Ces2e | 2 | ambion single siRNA | -0.431 | 0.0566 | -0.919 | -0.431 | inactive |
| Ces2e | 3 | ambion single siRNA | -2.81 | -3.26 | -2.37 | -0.431 | active |
| Ces2e | 4 | qiagen single siRNA | -0.298 | 0.184 | -0.78 | -0.51 | inactive |
| Ces2e | 5 | qiagen single siRNA | -4.24 | -4.24 | – | -0.51 | active |
| Ces2e | 6 | qiagen single siRNA | -0.241 | -0.241 | – | -0.51 | inactive |
| Chchd1 | 1 | ambion single siRNA | -0.0188 | -0.0304 | -0.00723 | -0.0188 | inactive |
| Chchd1 | 2 | ambion single siRNA | -0.877 | -1.59 | -0.169 | -0.0188 | inactive |
| Chchd1 | 3 | ambion single siRNA | 1.5 | 0.741 | 2.27 | -0.0188 | inactive |
| Chchd1 | 4 | qiagen single siRNA | 2.92 | 2.56 | 3.27 | 1.57 | active |
| Chchd1 | 5 | qiagen single siRNA | 2.2 | 0.57 | 3.82 | 1.57 | active |
| Chchd1 | 6 | qiagen single siRNA | -0.57 | -0.105 | -1.04 | 1.57 | inactive |
| Iqcc | 1 | ambion single siRNA | 2.01 | 2.75 | 1.28 | -2.42 | active |
| Iqcc | 2 | ambion single siRNA | -2.42 | -2.27 | -2.57 | -2.42 | active |
| Iqcc | 3 | ambion single siRNA | -5.27 | -5.08 | -5.47 | -2.42 | active |
| Ap2m1 | 1 | ambion single siRNA | 1.8 | 1.61 | 1.99 | -0.748 | inactive |
| Ap2m1 | 2 | ambion single siRNA | -0.748 | -0.965 | -0.532 | -0.748 | inactive |
| Ap2m1 | 3 | ambion single siRNA | -2.45 | -1.56 | -3.34 | -0.748 | active |
| Ap2m1 | 4 | qiagen single siRNA | 2.71 | 2.12 | 3.3 | -1.26 | active |
| Ap2m1 | 5 | qiagen single siRNA | -1.26 | -1.44 | -1.08 | -1.26 | inactive |
| Ap2m1 | 6 | qiagen single siRNA | -2.79 | -2.8 | -2.78 | -1.26 | active |
| Or4x6 | 1 | ambion single siRNA | 0.712 | 1.24 | 0.183 | -0.712 | inactive |
| Or4x6 | 2 | ambion single siRNA | – | – | – | -0.712 | inactive |
| Or4x6 | 3 | ambion single siRNA | -2.68 | -3.75 | -1.61 | -0.712 | active |
| Or4x6 | 4 | qiagen single siRNA | 2.51 | 3.05 | 1.98 | -0.384 | active |
| Or4x6 | 5 | qiagen single siRNA | -0.384 | -0.0469 | -0.72 | -0.384 | inactive |
| Or4x6 | 6 | qiagen single siRNA | -5.87 | -2.15 | -9.59 | -0.384 | active |

10 entries from above, reformatted:
Ces2e #1, siRNA vendor or control pool ambion single siRNA → p65 translocation z-score, replicate mean = 1.94; p65 translocation z-score, replicate 1 = 2.6; p65 translocation z-score, replicate 2 = 1.28; gene median z-score, per vendor = -0.431; Outcome = inactive
Ces2e #2, siRNA vendor or control pool ambion single siRNA → p65 translocation z-score, replicate mean = -0.431; p65 translocation z-score, replicate 1 = 0.0566; p65 translocation z-score, replicate 2 = -0.919; gene median z-score, per vendor = -0.431; Outcome = inactive
Ces2e #3, siRNA vendor or control pool ambion single siRNA → p65 translocation z-score, replicate mean = -2.81; p65 translocation z-score, replicate 1 = -3.26; p65 translocation z-score, replicate 2 = -2.37; gene median z-score, per vendor = -0.431; Outcome = active
Ces2e #4, siRNA vendor or control pool qiagen single siRNA → p65 translocation z-score, replicate mean = -0.298; p65 translocation z-score, replicate 1 = 0.184; p65 translocation z-score, replicate 2 = -0.78; gene median z-score, per vendor = -0.51; Outcome = inactive
Ces2e #5, siRNA vendor or control pool qiagen single siRNA → p65 translocation z-score, replicate mean = -4.24; p65 translocation z-score, replicate 1 = -4.24; gene median z-score, per vendor = -0.51; Outcome = active
Ces2e #6, siRNA vendor or control pool qiagen single siRNA → p65 translocation z-score, replicate mean = -0.241; p65 translocation z-score, replicate 1 = -0.241; gene median z-score, per vendor = -0.51; Outcome = inactive
Chchd1 #1, siRNA vendor or control pool ambion single siRNA → p65 translocation z-score, replicate mean = -0.0188; p65 translocation z-score, replicate 1 = -0.0304; p65 translocation z-score, replicate 2 = -0.00723; gene median z-score, per vendor = -0.0188; Outcome = inactive
Chchd1 #2, siRNA vendor or control pool ambion single siRNA → p65 translocation z-score, replicate mean = -0.877; p65 translocation z-score, replicate 1 = -1.59; p65 translocation z-score, replicate 2 = -0.169; gene median z-score, per vendor = -0.0188; Outcome = inactive
Chchd1 #3, siRNA vendor or control pool ambion single siRNA → p65 translocation z-score, replicate mean = 1.5; p65 translocation z-score, replicate 1 = 0.741; p65 translocation z-score, replicate 2 = 2.27; gene median z-score, per vendor = -0.0188; Outcome = inactive
Chchd1 #4, siRNA vendor or control pool qiagen single siRNA → p65 translocation z-score, replicate mean = 2.92; p65 translocation z-score, replicate 1 = 2.56; p65 translocation z-score, replicate 2 = 3.27; gene median z-score, per vendor = 1.57; Outcome = active
